The record followed here is paper PMC12040169 (PLOS Biology, 2025).

This is one part of the list.

The assay has as its system T1, CTL2-GFP (C. trachomatis L2/434/Bu, GFP-expressing).
T1 construct: L2/434/Bu, GFP-expressing
Details: species or system HeLa; Intracellular C. trachomatis growth in HeLa cells, bulk GFP fluorescence relative to DMSO. Conditions: bulk GFP, single well; 28.5 h, 10 µM; inhibitor.
`COc1cc(Cl)c(C)cc1NC(=O)C1CC=CCC1C(=O)O` (centres unmarked) [CBK296667]: the “% of control remaining” value amounted to 117.762%.

Regarding `Cc1ccc(CNC(=O)CSc2nc(C)c(C)c(=O)[nH]2)cc1` [CBK287735], the “% of control remaining” value turned out to be 121.224%.

Turning to `NS(=O)(=O)c1ccc(C(=O)N2CCC3(CCN(C(=O)c4ccoc4)C3)C2)cc1` (centres unmarked) [CBK131736], the “% of control remaining” value is 85.5352%.

On to `Cc1cc(=O)n2c3c(cc(S(=O)(=O)NC4CC4)cc13)CCC2` [CBK307572], for which the “% of control remaining” value amounted to 114.221%.

For `CCc1ccc(OC)c(S(=O)(=O)NC2CC(C)(C)NC(C)(C)C2)c1` [CBK270098], the “% of control remaining” value was found to be 166.425%.

Consider `NS(=O)(=O)c1ccc(CCNC(=O)/C=C/c2ccc([N+](=O)[O-])cc2)cc1` [CBK265683], for which the “% of control remaining” value came out at 89.5111%.

Take `CNS(=O)(=O)c1cc(C(=O)O)ccc1OC` [CBK270179]: the “% of control remaining” value came out at 92.5026%.

Consider `Cc1cc(Cl)cc(Cl)c1S(=O)(=O)Nc1cccc(C(=O)O)c1` [CBK155682], for which the “% of control remaining” value was 141.717%.

Regarding `COc1ccc(Cn2c(-c3ccc(OC)c(O)c3)nc3ccccc32)cc1O` [CBK263370], the “% of control remaining” value turned out to be 100.966%.

In the case of `COc1cc(CCN2C(=O)c3cccc4cccc(c34)C2=O)c(S(=O)(=O)N2CCCC2)cc1OC` [CBK264947], the “% of control remaining” value is given as 108.351%.

Take `COc1nc2ccccc2nc1CCC(=O)NCc1ccco1` [CBK269866]: the “% of control remaining” value is 140.224%.

Consider `CCCC(=O)Nc1ccc(-c2csc(N3CCN(C)CC3)n2)cc1` [CBK305025], for which the “% of control remaining” value is given as 105.092%.

Turning to `COc1ccccc1-c1cnc(N)c(N2CCC(C(=O)O)CC2)n1` [CBK064082], the “% of control remaining” value is 186.238%.

On to `COc1ccc(-c2ccc(C(=O)NCCN3CCOCC3)c(N(C)C(C)=O)n2)cc1` [CBK076545], for which the “% of control remaining” value is 103.712%.

With `Cc1nc2cc(OCc3nc(C(=O)NCC4CCOC4)co3)ccc2s1` (centres unmarked) [CBK307508], the “% of control remaining” value was determined as 159.139%.

Consider `Cc1c(F)cccc1CNCC1CCN(C(=O)OC(C)(C)C)CC1` [CBK056717], for which the “% of control remaining” value is on record as 174.537%.

For `CC(C)(C)OC(=O)N1CCN(c2ccnc(N)n2)CC1` [CBK003529], the “% of control remaining” value is on record as 119.447%.

As for `COc1ccc(-c2noc(CSc3nnc(-c4c[nH]c5ccccc45)n3C)n2)cc1OC` [CBK268644], the “% of control remaining” value worked out at 167.017%.

On to `CCN(CC)C(=O)C1CCCN(C2CCN(C(=O)c3c4ccccc4cc4ccccc34)CC2)C1` (centres unmarked) [CBK066966], for which the “% of control remaining” value was 127.123%.

In the case of `CCN(CC)c1c(C)nc2ccc(C(=O)NCCN3CCNC3=O)cn12` [CBK145977], the “% of control remaining” value was 110.77%.

As to `Cc1ccc(C(C)NC(=O)C2CCCN(S(C)(=O)=O)C2)c(C)c1` (centres unmarked) [CBK304349], the “% of control remaining” value is given as 126.317%.

As for `N#Cc1nc(-c2ccccc2F)oc1NCCCN1CCOCC1` [CBK265881], the “% of control remaining” value was 128.311%.

For `O=S(=O)(c1ccccc1)c1nc(-c2ccco2)oc1NCCCn1ccnc1` [CBK267670], the “% of control remaining” value came out at 127.297%.

With `Cc1ccc2c(c1)cc(C)c1nn(CC(=O)NC(C)C)c(=O)n12` [CBK283874], the “% of control remaining” value is recorded as 130.42%.

As to `Nc1ncc(-c2cccc(O)c2)nc1N1CCC(C(=O)O)CC1` [CBK063405], the “% of control remaining” value is given as 170.681%.

Turning to `CCOc1ccc(-n2c(C)cc(C(=O)NS(=O)(=O)c3ccc(C)cc3)c2C)cc1` [CBK296084], the “% of control remaining” value is reported as 169.979%.

Regarding `Cc1cc2c(=O)n(CC(=O)NCc3ccccn3)cnc2s1` [CBK071900], the “% of control remaining” value came to 55.2185%.

Take `Fc1ccc(-n2c(C3CC3)n[nH]c2=S)cc1Cl` [CBK288364]: the “% of control remaining” value is 132.886%.

As for `Cc1cc(C)n(C2CCN(Cc3nc4ccccc4n3C)CC2)n1` [CBK281621], the “% of control remaining” value is recorded as 135.885%.

In the case of `Cc1cccc(-n2ncc3c(=O)n(CC(=O)Nc4ccccc4)cnc32)c1C` [CBK287693], the “% of control remaining” value came to 114.413%.

For the compound `Nn1cnn2c(SCC(=O)c3ccccc3)nnc12` [CBK263194], the “% of control remaining” value was 105.437%.

Turning to `NCCN(C(=O)CCc1cc(C(F)(F)F)cc(C(F)(F)F)c1)c1ccc2c(c1)OCO2` [CBK000701T], the “% of control remaining” value is given as 56.8442%.

In the case of `Cn1nccc1C(=O)NC(Cc1cccs1)c1ccccn1` (centres unmarked) [CBK285207], the “% of control remaining” value is given as 103.504%.

Regarding `OCCN1CCN(c2nc(-c3cccnc3)cn3ccnc23)CC1` [CBK037887], the “% of control remaining” value is 146.282%.

Turning to `COc1ccc(C(=O)N(CCC(C)C)Cc2nc(C)c(C)n2Cc2ccccc2Cl)c(OC)c1` [CBK093441], the “% of control remaining” value is reported as 100%.

As to `C=CCn1c(SCc2nnc(-c3ccccc3)o2)nnc1C(O)c1ccccc1` (centres unmarked) [CBK267368], the “% of control remaining” value is 110.087%.

In the case of `Cc1nc(NC(=O)c2cccc(NC(=O)C3CCCO3)c2)sc1-c1n[nH]c(=S)n1C` (centres unmarked) [CBK295341], the “% of control remaining” value is recorded as 154.834%.

For `CCn1ncnc1CN(c1cccc(CO)c1)C1Cc2ccccc2C1` [CBK304173], the “% of control remaining” value was found to be 67.5933%.

On to `CN(CC(=O)Nc1ccccc1N1CCNCC1)C(=O)c1ccccc1` [CBK028287T], for which the “% of control remaining” value turned out to be 64.7169%.

`O=[N+]([O-])c1ccc(/C=N/C23CN4CN(CN(C4)C2)C3)s1` [CBK261752]: the “% of control remaining” value amounted to 85.6974%.

Regarding `Cc1ccc(S(=O)(=O)N2CCCN(CC(O)c3ccccc3)CC2)cc1` (centres unmarked) [CBK297911], the “% of control remaining” value is listed as 128.947%.

Turning to `Fc1ccc2c3c([nH]c2c1)C1(CCN(CCCOCc2ccccc2)CC1)NCC3` [CBK039858], the “% of control remaining” value was 100%.

In the case of `CCOC(=O)Cc1nc2cc([N+](=O)[O-])ccc2oc1=O` [CBK015603], the “% of control remaining” value turned out to be 92.0593%.

On to `CC(C)(C)OC(=O)N1CCC[C@@H](C(=O)c2cccnc2)C1` [CBK284284], for which the “% of control remaining” value is 83.2666%.

In the case of `COc1cccc(-n2ccn(C(=O)CCC3CCCC3)c2=O)c1` [CBK106625], the “% of control remaining” value was 106.426%.

As to `COc1ccc(-c2cnc3[nH]c(=O)n([C@H](CO)C(C)C)c3n2)c(OC)c1OC` [CBK065008], the “% of control remaining” value was 166.051%.

`O=c1[nH]c(CN2CCCCCCC2)nc2ccccc12` [CBK283205]: the “% of control remaining” value was 101.955%.

For the compound `N#Cc1c(C(F)(F)F)cc(-c2ccco2)nc1SCc1ccccn1` [CBK267450], the “% of control remaining” value came out at 146.149%.

Consider `CC1C2CCCN2CCN1Cc1cccc(Oc2ccccc2)c1` (centres unmarked) [CBK262880], for which the “% of control remaining” value was determined as 125.41%.

In the case of `Cn1c(C(=O)NCc2ccccc2)cc2ccccc21` [CBK200195], the “% of control remaining” value amounted to 82.7866%.
